Measured values reported in PubChem BioAssay AID2685 (National Center for Advancing Translational Sciences (NCATS), 2010).
The campaign covered roughly 320,000 compounds. About 2,100 (0.66%) were called active. The shares of active, inactive and inconclusive entries below differ from those in the screen. Calls come from the whole dose curve; as a rule, active = well fitted inhibition curve with a large enough effect in the signal ratio, with a control signal flat (not every such curve was filed as active); inconclusive = small, poorly fitted or top-dose-only effect, or effect the other way, or a change in a side signal; inactive = flat fitted curve, though single readings scatter; the % refers to the signal ratio. Potencies of inconclusive entries are doubtful fits and often do not repeat.
% is set by controls: 0 for no effect and ±100 for the full control effect; potency is the fitted concentration of half-maximal effect.

Assay: qHTS Assay for Lipid Storage Modulators in Drosophila S3 Cells
Conditions: BODIPY lipid droplet fluorescence, 18-24 h, cells fed with added oleic acid; lipid storage change, negative = inhibition: at 46.1 µM (top of the series) unless noted
Method in brief: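 Laser-scanning cytometry quantifies lipid droplet accumulation (500–530 nm total intensity; droplet/cell object ratio) in oleic acid-fed (400 uM added) Drosophila S3 cells treated with a concentration series. 20 uM Triacsin C defined 100% inhibition.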
For `CCCOc1ccccc1-c1nc2c([nH]1)c(=O)[nH]c(=O)n2C`, the Potency was inconclusive: 0.82 µM [activator, partial curve].
For `O=C(O)C[C@@H](O)C(=O)O`, the lipid storage change, negative = inhibition was inconclusive: -13.4%.
With `Cc1ccccc1NC1=C(Cl)C(=O)N(C2CCCCC2)C1=O` the lipid storage change, negative = inhibition was inconclusive: 15.6%.
For `Cc1onc(-c2ccccc2)c1C(=O)NCCN1CCOCC1`, the lipid storage change, negative = inhibition was inconclusive: 0.511%.
In the case of `O=C(CSc1nnc(-c2ccccc2F)o1)N1CCNC1=O`, the Potency is reported as inconclusive: 0.13 µM [activator, full curve, poor fit].
With `CC1CCN(C(=O)c2[nH]cnc2C(=O)Nc2cccc(Cl)c2)CC1` the lipid storage change, negative = inhibition was inconclusive: 12.7%.
In the case of `O=C(NCCCN1CCCC1=O)C(=O)NCC1OCCN1S(=O)(=O)c1ccc(Cl)cc1` (stereo not drawn), the Potency is reported as inconclusive: 6.51 µM [activator, single point].
For `Cc1ccccc1OCC(=O)Nc1cccc(S(=O)(=O)NC2=NCCC2)c1`, the lipid storage change, negative = inhibition was inconclusive: 10.1%.
With `O=C(Nc1ccc2c(c1)Cc1ccccc1-2)c1ccncc1` the lipid storage change, negative = inhibition was inconclusive: 35.9%.
For `Cc1ncc(CO)c(/C=N/NC(=O)c2ccoc2C)c1O`, the lipid storage change, negative = inhibition was “inconclusive”.
With `O=C(Nc1ccccc1)C1CC(=O)n2c(nc3ccccc32)N1` (stereo not drawn) the lipid storage change, negative = inhibition was inconclusive: -8.86%.
With `CC(C)NC(=O)Cn1cnc2c1c(=O)n(C)c(=O)n2C` the lipid storage change, negative = inhibition was inconclusive: -60%.
With `CC(C)OP(=O)(OC(C)C)C(Nc1ccccn1)c1ccc(F)cc1` (stereo not drawn) the lipid storage change, negative = inhibition was inconclusive: 5.57%.
In the case of `OC(Cc1nc2ccccc2[nH]1)c1ccccc1Cl` (stereo not drawn), the Potency is reported as inconclusive: 16.4 µM [rising, partial curve, poor fit].
In the case of `Cc1ncc([N+](=O)[O-])n1Cc1ccccc1`, the Potency is reported as inconclusive: 0.0046 µM [falling, full curve, poor fit].
With `O=C1CCCS(=O)(=O)c2ccccc21` the Potency was inconclusive: 0.0651 µM [falling, full curve, poor fit].
For `COc1ccccc1CCNC(=O)c1ccc(NC(=O)CC2SC(N3CCCC3)=NC2=O)cc1` (stereo not drawn), the lipid storage change, negative = inhibition was inconclusive: 11.8%.
In the case of `CC(C)(C)OC(=O)NCCc1nnc(SCC(=O)Nc2cccc(Cl)c2)o1`, the lipid storage change, negative = inhibition is reported as inconclusive: 94.8%.
For `O=C1/C(=C/c2cccc(Cl)c2)SC(=S)N1CCC(=O)N1CCCCC1CCO` (stereo not drawn), the Potency was inconclusive: 29.1 µM [falling, single point].
With `COc1ccccc1CC(=O)NN1C(=O)NC2(CCC(C)CC2)C1=O` (stereo not drawn) the lipid storage change, negative = inhibition was “inconclusive”.
In the case of `O=C(O)c1cc2cc(Oc3ccccc3)ccc2[nH]1`, the Potency is reported as inconclusive: 29.1 µM [activator, single point].
With `COC(=O)c1ccc(C(c2c(N)n(Cc3ccccc3)c(=O)n(C)c2=O)N2CCOCC2)cc1` (stereo not drawn) the lipid storage change, negative = inhibition was inconclusive: -16.6%.
For `COc1ccc(C(=O)N2CCN(c3ccccc3)CC2)cc1S(=O)(=O)NC1CC1`, the Potency was inconclusive: 2.31 µM [activator, partial curve].
For `Cn1nc(C(=O)N2CCN(S(=O)(=O)/C=C/c3ccccc3)CC2)c2ccccc2c1=O`, the lipid storage change, negative = inhibition was inconclusive: 28.9%.
With `Cc1ccc(S(=O)c2ccc(C)cc2)cc1` the lipid storage change, negative = inhibition was inconclusive: -24.8%.
For `O=C(N/N=C/c1ccc2c(c1)OCO2)C(=O)N1CCCC1`, the lipid storage change, negative = inhibition was inconclusive: -12.6%.
With `CCCn1nc(CC(=O)O)c2ccccc2c1=O` the lipid storage change, negative = inhibition was inconclusive: -50.2%.
For `CNC(=O)c1nnn(-c2ccccc2)c1C(=O)NC`, the lipid storage change, negative = inhibition was inconclusive: -0.983%.
With `COC(=O)c1ccc(OCC(=O)Nc2ccsc2C(=O)OC)cc1` the lipid storage change, negative = inhibition was inconclusive: 0.846%.
For `Cc1sc2nc(-c3cccs3)oc(=O)c2c1C`, the “lipid storage change, negative = inhibition” value was inactive: 0.745%.
With `COc1ccc(CCN(C)C(=O)c2ccc(OCC(=O)N3CCOCC3)c(OC)c2)cc1OC` the lipid storage change, negative = inhibition was inconclusive: -29.7%.
For `CCCN(C(=O)CSc1n[nH]c(-c2ccc(OC)cc2)n1)c1c(N)n(Cc2ccccc2)c(=O)[nH]c1=O`, the Potency was inconclusive: 29.1 µM [rising, single point].
For `CCOC(=O)CNC(=O)CSc1nnc(NC(=O)c2ccccc2Cl)s1`, the lipid storage change, negative = inhibition was inconclusive: 102%.
For `CCc1c(C)sc(NC(=O)c2ccoc2C)c1C(N)=O`, the lipid storage change, negative = inhibition was inconclusive: -21.8%.
With `Cc1cccc(NC(=O)Nc2ccccc2)n1` the “lipid storage change, negative = inhibition” value was inactive: -0.183%.
In the case of `COc1ccc(N2C(=O)[C@@H]3[C@H](C2=O)[C@H](C(=O)c2ccc(OC(C)=O)cc2)N2N=CC=C[C@@H]32)cc1`, the Potency is reported as inconclusive: 1.84 µM [activator, partial curve].
For `O=C1C2C3C=CC(C3)C2C(=O)N1Nc1ccccc1` (stereo not drawn), the Potency was inconclusive: 29.1 µM [activator, single point].
In the case of `COc1ccc(OC)c(C2C(C(N)=O)=C(C)Nc3nc(CCCO)nn32)c1` (stereo not drawn), the Potency is reported as inconclusive: 29.1 µM [cytotoxic, single point].
In the case of `Cc1ccccc1CSCCNC(=O)c1ccccc1`, the lipid storage change, negative = inhibition is reported as inconclusive: 13.5%.
For `O=C(CSc1nnc(Cc2cc(=O)[nH]c(=O)[nH]2)n1-c1ccc(Cl)cc1)NCC1CCCO1` (stereo not drawn), the lipid storage change, negative = inhibition was inconclusive: -8.75%.
For `CC1=C(C)CC(C(=O)c2ccc(C)cc2)C(C(=O)O)C1` (stereo not drawn), the Potency was inconclusive: 32.6 µM [activator, single point].
With `O=C(c1ccc(N2CCN(C(=O)c3ccccc3)CC2)cc1)c1cccc(F)c1` the Potency was active: 2.06 µM.
With `CCc1nnc(NC(=O)c2ccc(NC(=O)C(C)C)cc2)s1` the Potency was inconclusive: 0.366 µM [falling, full curve, poor fit].
In the case of `CCCC(=O)NC(Nc1cccc(C(F)(F)F)c1)C(Cl)(Cl)Cl` (stereo not drawn), the Potency is reported as inconclusive: 16.4 µM [falling, single point].
With `O=C(COc1c(Cl)cc(Cl)cc1Cl)c1ccc(Cl)cc1` the lipid storage change, negative = inhibition was inconclusive: -0.362%.
In the case of `CCCCCCCNC(=O)C1(CC2CC(c3ccc(Cl)cc3)=NO2)CCN(C(=O)CCCCCBr)CC1` (stereo not drawn), the Potency is reported as inconclusive: 29.1 µM [falling, single point].
For `COc1cc2[nH]c(=O)n(CCCCCC(=O)NCCc3c[nH]c4ccccc34)c(=O)c2cc1OC`, the Potency was inconclusive: 3.26 µM [rising, full curve, poor fit].
In the case of `COc1ccccc1NC(=O)C(C)NS(=O)(=O)c1ccc(F)cc1` (stereo not drawn), the “lipid storage change, negative = inhibition” value is reported as inactive: 2.58%.
In the case of `COc1cccc(NC(=O)NCCN2CCCCC2)c1`, the Potency is reported as inconclusive: 32.6 µM [activator, partial curve, poor fit].
In the case of `COC(=O)CN1C(=S)N(C)C(=O)C1CC(=O)Nc1ccccc1` (stereo not drawn), the lipid storage change, negative = inhibition is reported as inconclusive: -30.4%.
In the case of `Cc1cc2oc(=O)sc2cc1NS(=O)(=O)c1cccc2cccnc12`, the Potency is reported as inconclusive: 0.0041 µM [falling, full curve, poor fit].
In the case of `CC1CCN(S(=O)(=O)c2ccc3c(c2)oc(=O)n3CC(=O)NCc2ccc3c(c2)OCO3)CC1`, the Potency is reported as inconclusive: 18.4 µM [activator, single point].
For `COc1ccc(OC)c(Nc2nc(N)nc(-c3cc4ccccc4o3)n2)c1`, the lipid storage change, negative = inhibition was inconclusive: 50.2%.
For `CCN1CCSc2ccc(C(=O)NCc3ccccc3F)cc21`, the lipid storage change, negative = inhibition was inconclusive: -35.2%.
In the case of `Cc1ccc(NC(=O)COC(=O)CCn2c(C)csc2=O)cc1S(=O)(=O)N1CCOCC1`, the lipid storage change, negative = inhibition is reported as “inconclusive”.
In the case of `CC(=O)c1ccc(NC(=O)COc2ccccc2C(=O)Nc2ccc(C)cn2)cc1`, the lipid storage change, negative = inhibition is reported as inconclusive: 4.01%.
For `O=C1C2C3C=CC(C3)C2C(=O)N1CCN1CCN(Cc2ccc([N+](=O)[O-])cc2)CC1` (stereo not drawn), the lipid storage change, negative = inhibition was inconclusive: -52.6% [at 0.00295 µM].
In the case of `CC(=O)c1cn(CC(=O)Nc2ccc(C)cc2)c2ccccc12`, the Potency is reported as inconclusive: 0.461 µM [activator, full curve].
For `CCOc1ccc(CN(C)CC(=O)NCc2ccccc2Cl)cc1`, the lipid storage change, negative = inhibition was inconclusive: 21.4%.
In the case of `COc1ccc(Cc2noc(CN3CCC(c4ccncc4)CC3)n2)cc1OC`, the lipid storage change, negative = inhibition is reported as inconclusive: -44.8%.
For `O=C(Cn1cc(C(F)(F)F)ccc1=O)N1CCN(S(=O)(=O)c2ccccc2)CC1`, the lipid storage change, negative = inhibition was inconclusive: -3.82%.
For `CCN(CC(=O)NCc1cccs1)C(=O)c1ccc(NS(=O)(=O)c2ccc(F)cc2)cc1`, the lipid storage change, negative = inhibition was inconclusive: 0.295%.
For `CCOC(=O)c1nnn(CC(=O)Nc2cc(Cl)ccc2C)c1C(=O)OCC`, the Potency was inconclusive: 0.0046 µM [activator, full curve, poor fit].
In the case of `O=C(Nc1ccccc1N1CCN(C(=O)c2ccccc2)CC1)c1ccc([N+](=O)[O-])o1`, the Potency is reported as active: 8.2 µM.
For `O=C(CN1CCN(S(=O)(=O)c2ccc(Cl)c(Cl)c2)CC1)N1CCCCC1`, the Potency was inconclusive: 2.91 µM [falling, single point].
In the case of `O=C(CSc1ncnc2nc[nH]c12)c1ccc(Cl)cc1`, the “lipid storage change, negative = inhibition” value is reported as inactive: 4.43%.
For `CCOCCc1nnc(NC(=O)C2CC(=O)N(CCc3ccc(F)cc3)C2)s1` (stereo not drawn), the lipid storage change, negative = inhibition was inconclusive: -36.1%.
With `Cc1ccc(CNC(=O)COC(=O)CCOc2ccc(C)cc2)cc1` the lipid storage change, negative = inhibition was “inconclusive”.
In the case of `CC(C)N(C(=O)c1ccc2nc(-c3ccccc3)c(-c3ccccc3)nc2c1)C(C)C`, the Potency is reported as active: 1.64 µM.
For `Cc1cc(Cl)ccc1OCC(=O)OCC(=O)NC1CCCC1`, the lipid storage change, negative = inhibition was inconclusive: -1.45%.
For `O=C1CSC(=S)N1CC1CCCO1` (stereo not drawn), the lipid storage change, negative = inhibition was inconclusive: -7.56%.
For `COn1c(-c2ccccc2)nc2ccc(Cl)cc21`, the lipid storage change, negative = inhibition was inconclusive: -59.5%.
In the case of `O=C1C(Cc2cccc([N+](=O)[O-])c2)S/C(=N/N=C/c2ccco2)N1c1ccccc1` (stereo not drawn), the lipid storage change, negative = inhibition is reported as inconclusive: -10%.
For `C/C(=C\C=C(C#N)C#N)c1cc(C#N)c(N)o1`, the Potency was active: 16.4 µM.
For `COc1ccc(C(C)=O)cc1CSC(=N)N`, the lipid storage change, negative = inhibition was inconclusive: 46.7%.
For `O=C(NC1CCCc2ccccc21)c1n[nH]c(=O)c2ccccc12` (stereo not drawn), the lipid storage change, negative = inhibition was inconclusive: 12.4%.
With `COc1ccc(-n2nc(C(=O)NCC(=O)N3CC(C)CC(C)C3)c3ccccc3c2=O)cc1OC` (stereo not drawn) the lipid storage change, negative = inhibition was inconclusive: 22.1%.
For `Cc1ccc(CNC(=O)CN2C(=O)COc3ccc(S(=O)(=O)N4CCC(C)CC4)cc32)o1`, the lipid storage change, negative = inhibition was inconclusive: 65.1%.
